Earlier results on two compounds are cited in article PMC9369311, “Examination of Intracellular GPCR-Mediated Signaling with High Temporal Resolution” (International Journal of Molecular Sciences, 2022).

For this data set the following is noted: previous study; cited from earlier work.

`CCN(CC)c1ccc2c(COP3(=O)OC[C@H]4O[C@@H](n5cnc6c(N)ncnc65)[C@H](O)[C@@H]4O3)cc(=O)oc2c1` (some centres unmarked) [DEACM-cAMP]: the photochemical quantum yield is 0.21.

As for `O=C(O)CN(CC(=O)O)Cc1c(O)c(Br)cc2c(COC(=O)NCC(O)c3ccc(O)cc3)cc(=O)oc12` (centres unmarked) [BBHCMOC-octopamine], the photochemical quantum yield was 0.11.
